Experimental data published in PMC12292949.
Results are given in words; binding and its absence hold for the method and conditions named. Binding seen in cells or lysates may run through a third protein. Some entries that bind do so weakly or less than the wild type.

The chains behind the UniProt entries cited, without tags or fusion partners.
UniProt Q92922: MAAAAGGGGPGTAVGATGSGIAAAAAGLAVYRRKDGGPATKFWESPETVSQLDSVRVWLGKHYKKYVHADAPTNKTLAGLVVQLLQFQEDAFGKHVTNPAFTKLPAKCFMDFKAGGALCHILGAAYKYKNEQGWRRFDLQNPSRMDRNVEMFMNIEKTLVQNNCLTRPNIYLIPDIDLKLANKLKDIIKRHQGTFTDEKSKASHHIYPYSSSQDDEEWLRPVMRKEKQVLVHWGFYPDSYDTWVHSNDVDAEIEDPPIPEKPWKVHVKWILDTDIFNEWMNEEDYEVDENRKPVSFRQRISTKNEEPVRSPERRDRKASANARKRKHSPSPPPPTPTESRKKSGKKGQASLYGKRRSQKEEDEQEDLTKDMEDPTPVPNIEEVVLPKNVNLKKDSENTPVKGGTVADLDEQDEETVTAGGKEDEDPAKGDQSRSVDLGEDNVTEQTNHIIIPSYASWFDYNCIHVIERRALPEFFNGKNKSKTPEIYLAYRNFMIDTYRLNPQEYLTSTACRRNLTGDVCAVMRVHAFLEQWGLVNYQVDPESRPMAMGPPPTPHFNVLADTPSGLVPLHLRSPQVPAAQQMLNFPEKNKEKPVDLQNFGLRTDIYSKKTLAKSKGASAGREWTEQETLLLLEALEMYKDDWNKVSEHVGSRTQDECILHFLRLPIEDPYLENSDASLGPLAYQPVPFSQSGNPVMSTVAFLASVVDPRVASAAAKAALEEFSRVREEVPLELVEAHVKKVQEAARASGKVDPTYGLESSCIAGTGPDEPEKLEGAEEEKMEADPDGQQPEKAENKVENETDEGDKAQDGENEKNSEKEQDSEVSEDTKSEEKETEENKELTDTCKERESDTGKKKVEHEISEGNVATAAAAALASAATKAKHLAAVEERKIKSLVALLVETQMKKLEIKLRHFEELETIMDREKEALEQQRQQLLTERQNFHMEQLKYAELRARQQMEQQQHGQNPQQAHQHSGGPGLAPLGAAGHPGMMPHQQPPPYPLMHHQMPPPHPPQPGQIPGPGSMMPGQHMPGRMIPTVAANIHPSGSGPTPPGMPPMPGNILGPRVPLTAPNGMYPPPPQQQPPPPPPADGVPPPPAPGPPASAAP
UniProt Q969G3: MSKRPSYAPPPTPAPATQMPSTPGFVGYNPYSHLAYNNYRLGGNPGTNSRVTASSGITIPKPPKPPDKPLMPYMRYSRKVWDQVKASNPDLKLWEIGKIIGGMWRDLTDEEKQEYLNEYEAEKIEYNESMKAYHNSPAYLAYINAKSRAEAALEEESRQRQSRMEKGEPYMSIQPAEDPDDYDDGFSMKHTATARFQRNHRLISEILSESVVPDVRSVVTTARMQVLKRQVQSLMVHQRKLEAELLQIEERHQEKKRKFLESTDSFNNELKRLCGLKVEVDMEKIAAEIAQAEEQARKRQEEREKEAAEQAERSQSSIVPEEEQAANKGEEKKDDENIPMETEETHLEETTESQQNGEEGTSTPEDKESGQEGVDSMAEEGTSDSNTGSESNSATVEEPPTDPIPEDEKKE

T1: H2A.B N-terminal peptide asymmetrically dimethylated at R7 (human)
T1 sequence (peptide, asymmetric dimethylarginine (ADMA) at R7; C-terminally biotinylated): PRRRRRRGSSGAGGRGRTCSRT

T2: unmodified H2A.B N-terminal peptide (human)
T2 sequence (peptide, C-terminally biotinylated): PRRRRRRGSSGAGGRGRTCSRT


Assays:
[1] = target: T1, H2A.B N-terminal peptide asymmetrically dimethylated at R7 (human); experiment: pull-down; biotinylated unmodified or R7me2a H2A.B N-terminal peptides on streptavidin beads, nuclear extracts from L428 cells, Western blot; only the target purified
[2] = target: T2, unmodified H2A.B N-terminal peptide (human); experiment: as above

Row | Molecule | binding [1] | binding [2]
1 | SMARCC1 (endogenous) (from UniProt Q92922 1-1105) | binds | binds
2 | SMARCE1 (endogenous) (from UniProt Q969G3 1-411) | binds | binds
3 | TRA2B (endogenous) (protein, UniProt P62995 1-288) MSDSGEQNYGERESRSASRSGSAHGSGKSARHTPARSRSKEDSRRSRSKSRSRSESRSRSRRSSRRHYTRSRSRSRSHRRSRSRSYSRDYRRRHSHSHSPMSTRRRHVGNRANPDPNCCLGVFGLSLYTTERDLREVFSKYGPIADVSIVYDQQSRRSRGFAFVYFENVDDAKEAKERANGMELDGRRIRVDFSITKRPHTPTPGIYMGRPTYGSSRRRDYYDRGYDRGYDDRDYYSRSYRGGGGGGGGWRAAQDRDQIYRRRSPSPYYSRGGYRSRSRSRSYSPRRY |  | binds
